Measurements taken from PubChem BioAssay AID192 (DTP/NCI, 2004).
The list is a part of this screen's results and no random one: it is rich in T/C values a quarter to a half above the control, in often repeated tests (any T/C) and in doses without a T/C. Other doses and runs of a compound stand elsewhere. T/C: endpoint of the treated group in % of that of the vehicle group. Some doses have a count of surviving animals in place of a T/C: the source files T/C as zero there, which appears to mark a toxic dose or a test without result, not a measured value. Some survivor counts are full or nearly so, which does not show that the dose was tolerated: survival well below the control is almost never listed, so the zero probably covers shortened survival too. Counts of survivors are from the toxicity check (mostly the fifth day) where no day follows; animals may have died later. Schedule codes are those of the source, read here as Q, the interval in days (D) or hours (H), X, the number of doses. Some schedules carry Z or #; the key to these is not given. For survival time, the PubChem record calls one and a half times the control and up active, and a quarter to a half above the control has no call in these data; cut-offs in other NCI protocols can differ. Some T/C values carry the count of animals alive at the toxicity check (mostly the fifth day); without a count, all were alive then.

Tested on: BDF1 mice, B16 melanoma ip, median survival T/C
Assay: NCI In Vivo Anticancer Drug Screen. Data for tumor model B16 Melanoma (intraperitoneal) in B6D2F1 (BDF1) mice
Settings: T/C endpoint: median survival time, higher T/C = longer survival
Outline: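 Each result divides a survival or tumor-size measurement in the compound-treated group by the same measurement in the vehicle group.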

[1] = dose: 50.0 mg/kg/injection, schedule: Q01DX009 (ip), vehicle: Klucel (hydroxypropylcellulose) (HPC)
[2] = dose: 400.0 mg/kg/injection, schedule: Q01DX009 (ip), vehicle: Klucel (hydroxypropylcellulose) (HPC)
[3] = dose: 100.0 mg/kg/injection, schedule: Q01DX009 (ip), vehicle: Klucel (hydroxypropylcellulose) (HPC)
[4] = dose: 200.0 mg/kg/injection, schedule: Q01DX009 (ip), vehicle: Klucel (hydroxypropylcellulose) (HPC)
[5] = dose: 200.0 mg/kg/injection, schedule: Q04DX003 (ip), vehicle: Klucel (hydroxypropylcellulose) (HPC)
[6] = dose: 100.0 mg/kg/injection, schedule: Q04DX003 (ip), vehicle: Klucel (hydroxypropylcellulose) (HPC)
[7] = dose: 400.0 mg/kg/injection, schedule: Q01DX009 (ip), vehicle: saline

SMILES: CCCCC[C@H](O)/C=C/[C@@H]1[C@@H](C/C=C\CCCC(=O)O)[C@@H](O)C[C@H]1O
- survivor count (dose: 0.5 mg/kg/injection, schedule: Q#A X020 (ip), vehicle: saline with Tween-80): 10 of 10

SMILES: C[C@@H]1CC[C@@]2(NC1)O[C@H]1C[C@H]3[C@@H]4CC=C5C[C@@H](O)CC[C@]5(C)[C@H]4CC[C@]3(C)[C@H]1[C@@H]2C
- survivor count (dose: 25.0 mg/kg/injection, schedule: Q01DX009 (ip), vehicle: Klucel (hydroxypropylcellulose) (HPC)): 10 of 10
- survivor count [1]: 10 of 10

SMILES: CC(=O)c1ccc(Oc2ccc(/C(C)=N\N=C(N)N)cc2)cc1
- survivor count (dose: 50.0 mg/kg/injection, schedule: Q01DX009 (ip), vehicle: saline with Tween-80): 4 of 6
- survivor count (dose: 100.0 mg/kg/injection, schedule: Q01DX009 (ip), vehicle: saline with Tween-80): 0 of 6

SMILES: COC1=C(C)C(=O)C2=C(C1=O)C(CO)N1C(C#N)C3CC4C(C1C2N1CCOC41)N3C (stereo not drawn)
- survivor count (dose: 2.0 mg/kg/injection, schedule: Q01DX009 (ip), vehicle: saline + alcohol): 6 of 10

SMILES: CCOC(=O)C(Cc1c[nH]c2cc(N)ccc12)(NC(C)=O)C(=O)OCC
- survivor count [2]: 9 of 10

SMILES: Cc1ccc(NCCN(C)C)c2c(=O)c3cc(O)ccc3sc12
- T/C (dose: 6.0 mg/kg/injection, schedule: Q01DX009 (ip), vehicle: Klucel (hydroxypropylcellulose) (HPC)): 141 % of control
- T/C (dose: 12.5 mg/kg/injection, schedule: Q01DX009 (ip), vehicle: Klucel (hydroxypropylcellulose) (HPC)): 134 % of control
- survivor count (dose: 48.0 mg/kg/injection, schedule: Q01DX009 (ip), vehicle: Klucel (hydroxypropylcellulose) (HPC)): 10 of 10
- survivor count [1]: 9 of 10
- survivor count [3]: 10 of 10
- survivor count [4]: 3 of 10

SMILES: COc1ccc(C(C#N)N2CCOCC2)cc1 (stereo not drawn)
- survivor count [3]: 10 of 10
- survivor count [4]: 1 of 10
- survivor count [5]: 7 of 10

SMILES: O=[N+]([O-])c1ccc2[nH]c(=S)sc2c1
- survivor count [3]: 3 of 10

SMILES: Cc1ccc(Cl)cc1NC(=O)Nc1ccc(Cl)c(Cl)c1
- survivor count (dose: 300.0 mg/kg/injection, schedule: Q01DX009 (ip), vehicle: Klucel (hydroxypropylcellulose) (HPC)): 10 of 10

SMILES: O=c1c(O)c(-c2ccc(O)c(O)c2)oc2cc(O)cc(O)c12
- survivor count (dose: 400.0 mg/kg/injection, schedule: Q02DX009 (ip), vehicle: saline with Tween-80): 10 of 10
- survivor count (dose: 800.0 mg/kg/injection, schedule: Q02DX009 (ip), vehicle: saline with Tween-80): 7 of 10
- survivor count (dose: 1600.0 mg/kg/injection, schedule: Q02DX009 (ip), vehicle: saline with Tween-80): 1 of 10

SMILES: COCC(O)Cn1ccnc1[N+](=O)[O-] (stereo not drawn)
- T/C (dose: 400.0 mg/kg/injection, schedule: Q01DX009 (ip), vehicle: suspension in saline): 125 % of control

SMILES: O=C1/C(=C/c2ccc([N+](=O)[O-])cc2)CCc2ccccc21
- survivor count (dose: 200.0 mg/kg/injection, schedule: Q01DX009 (ip), vehicle: water): 10 of 10

SMILES: O=C(O)/C=C/C(=O)NCc1ccco1
- survivor count [2]: 10 of 10

SMILES: CCCCCCCC(=O)CCC
- survivor count [2]: 7 of 10

SMILES: Cc1ccc(C)c(NC(=O)Nc2ccccc2C)c1
- survivor count [6]: 10 of 10

SMILES: Cc1ccc(N=Nc2c(O)ccc3ccccc23)c(C)c1
- survivor count [2]: 10 of 10

SMILES: NCC(=O)Nc1ccc(O)cc1
- survivor count (dose: 600.0 mg/kg/injection, schedule: Q01DX009 (ip), vehicle: saline): 6 of 6

SMILES: CC[CH2][Pb]([Cl])([CH2]CC)[CH2]CC
- survivor count (dose: 0.18 mg/kg/injection, schedule: Q01DX009 (ip), vehicle: DMSO): 10 of 10
- survivor count (dose: 0.37 mg/kg/injection, schedule: Q01DX009 (ip), vehicle: DMSO): 10 of 10
- survivor count (dose: 0.75 mg/kg/injection, schedule: Q01DX009 (ip), vehicle: DMSO): 10 of 10
- survivor count (dose: 5.0 mg/kg/injection, schedule: Q01DX009 (ip), vehicle: DMSO): 10 of 10
- survivor count (dose: 10.0 mg/kg/injection, schedule: Q01DX009 (ip), vehicle: DMSO): 10 of 10
- survivor count (dose: 12.5 mg/kg/injection, schedule: Q01DX009 (ip), vehicle: DMSO): 0 of 8
- survivor count (dose: 20.0 mg/kg/injection, schedule: Q01DX009 (ip), vehicle: DMSO): 9 of 10
- survivor count (dose: 25.0 mg/kg/injection, schedule: Q01DX009 (ip), vehicle: DMSO): 0 of 8
- survivor count (dose: 50.0 mg/kg/injection, schedule: Q01DX009 (ip), vehicle: DMSO): 0 of 7
- survivor count (dose: 0.6 micrograms/kg/injection, schedule: Q01DX009 (ip), vehicle: DMSO): 10 of 10
- survivor count (dose: 1.2 micrograms/kg/injection, schedule: Q01DX009 (ip), vehicle: DMSO): 9 of 10
- survivor count (dose: 2.5 micrograms/kg/injection, schedule: Q01DX009 (ip), vehicle: DMSO): 9 of 9
- survivor count (dose: 22.0 micrograms/kg/injection, schedule: Q01DX009 (ip), vehicle: DMSO): 9 of 9
- survivor count (dose: 45.0 micrograms/kg/injection, schedule: Q01DX009 (ip), vehicle: DMSO): 10 of 10
- survivor count (dose: 90.0 micrograms/kg/injection, schedule: Q01DX009 (ip), vehicle: DMSO): 9 of 9
- survivor count (dose: 180.0 micrograms/kg/injection, schedule: Q01DX009 (ip), vehicle: DMSO): 8 of 9

SMILES: O=C(O)C(O)C(=O)O.[NH2-].[NH2-].[Pt+2]
- T/C (dose: 2.0 mg/kg/injection, schedule: Q01DX009 (ip), vehicle: other): 131 % of control
- survivor count (dose: 24.0 mg/kg/injection, schedule: Q01DX009 (ip), vehicle: other): 8 of 9
- survivor count (dose: 32.0 mg/kg/injection, schedule: Q01DX009 (ip), vehicle: other): 10 of 10

SMILES: Oc1ccc(/C=N/NC(=S)NN2CCOCC2)nc1
- survivor count [1]: 10 of 10

SMILES: NC(=O)CCC(N)C(=O)O.[Cl-].[Cl-].[Cl-].[Cl-].[Pt+2] (stereo not drawn)
- T/C (dose: 6.25 mg/kg/injection, schedule: Q01DX009 (ip), vehicle: water): 125 % of control

SMILES: CN(C)CCCN1c2ccccc2CCc2ccc(Cl)cc21
- T/C (dose: 3.12 mg/kg/injection, schedule: Q01DX009 (ip), vehicle: saline): 127 % of control
- survivor count (dose: 100.0 mg/kg/injection, schedule: Q01DX009 (ip), vehicle: saline): 5 of 10
- survivor count (dose: 200.0 mg/kg/injection, schedule: Q01DX009 (ip), vehicle: saline): 0 of 10
- survivor count [7]: 0 of 10

SMILES: NC1=C(N2CC2)C(=O)C(N)=C(N2CC2)C1=O
- T/C (dose: 100.0 micrograms/kg/injection, schedule: Q01DX009 (ip), vehicle: saline): 131 % of control

SMILES: CC(Cl)CN(CC(C)Cl)C(=O)OCC(NC(=O)OCc1ccccc1)C(=O)OCc1ccccc1 (stereo not drawn)
- survivor count (dose: 50.0 mg/kg/injection, schedule: Q04DX003 (ip), vehicle: Klucel (hydroxypropylcellulose) (HPC)): 10 of 10
- survivor count [6]: 10 of 10
- survivor count [5]: 9 of 10
- survivor count (dose: 400.0 mg/kg/injection, schedule: Q04DX003 (ip), vehicle: Klucel (hydroxypropylcellulose) (HPC)): 10 of 10

SMILES: CC(=O)Nc1ccc(Cl)c(Cl)c1
- survivor count [4]: 5 of 10

SMILES: CCOC(=O)C(=CN1CCCCCC1)C(=O)OCC
- survivor count (dose: 400.0 mg/kg/injection, schedule: Q01DX009 (ip), vehicle: saline with Tween-80): 7 of 10

SMILES: CC1(C)COC(c2ccccc2)=N1
- T/C [7]: 126 % of control [9 of 10 alive]

SMILES: Cc1ccc2c(C)c3ccc4ccccc4c3c[n+]2c1
- survivor count (dose: 75.0 mg/kg/injection, schedule: Q01DX009 (ip), vehicle: saline with Tween-80): 5 of 6
- survivor count (dose: 80.0 mg/kg/injection, schedule: Q01DX009 (ip), vehicle: saline with Tween-80): 6 of 6
- survivor count (dose: 150.0 mg/kg/injection, schedule: Q01DX009 (ip), vehicle: saline with Tween-80): 6 of 6
- survivor count (dose: 300.0 mg/kg/injection, schedule: Q01DX009 (ip), vehicle: saline with Tween-80): 1 of 6
- survivor count (dose: 600.0 mg/kg/injection, schedule: Q01DX009 (ip), vehicle: saline with Tween-80): 3 of 6

SMILES: CCCCCCCCC1CCC(N)CC1 (stereo not drawn)
- survivor count [4]: 10 of 10

SMILES: CNc1ccccc1C(N)=O
- survivor count [2]: 10 of 10
